# Test results as given in PubChem BioAssay AID651789 (National Center for Advancing Translational Sciences (NCATS), 2012).
# The shares of active, inactive and inconclusive entries below differ from those in the screen. Potencies of inconclusive entries are doubtful fits and often do not repeat. Activity calls are given as the source filed them. Calls follow the shape of the dose curve; as a rule, active = well fitted inhibition curve with a large enough effect; inconclusive = small, poorly fitted or top-dose-only effect; inactive = no such curve, though single readings can be large or run the other way.
# Assay: Acumen qHTS Assay for Inhibitors of the mTORC1 Signaling Pathway in WT MEF Cells: Hit Validation; also: nearly all actives have a fitted effect of over 60% in size;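 as to activity change, negative = inhibition: phospho-rpS6 Ser235/236 immunofluorescence normalised to propidium iodide cell stain; percent of cells above a cutoff set by 7.5 nM rapamycin treated wells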
# Settings: Acumen imaging; series mostly up to 37.3 µM; activity change, negative = inhibition: at the top concentration
# In short: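 Read-out is immunofluorescent phospho-rpS6 (Ser235/236) normalised to PI-stained cell number, reported as % active cells using a 7.5 nM rapamycin threshold. Cells: WT or Tsc2-/-, p53-/- MEFs, compound-exposed 24 h at 37C; PI count also tracks viability.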
# Potency is read from the fitted curve at half-maximal effect.
Compound,Potency,"activity change, negative = inhibition"
CCCCn1c(=N)n(CCOc2ccccc2OC)c2ccccc21,active: 11.7 µM,–
CC(=O)C1=C(c2ccc(Cl)c(Cl)c2)N(C(C)=O)n2cnnc2S1,"inconclusive: 5.21 µM [inhibitor, single point]",–
CCS(=O)(=O)c1ncc(Cl)c(C(=O)N(Cc2ccccc2)Cc2ccco2)n1,active: 3.29 µM,–
CCOC(=O)C1CCN(C(=O)CSc2c3c(nc4ccc(Cl)cc24)CCCC3)CC1,–,inactive: -12.9%
CCOC(=O)c1sc2ccccc2c1S(=O)(=O)Nc1ccc(CC)cc1,"inconclusive: 4.14 µM [inhibitor, partial curve, poor fit]",–
Cc1ccccc1CN1C(=O)C(O)(CC(=O)c2cccc(Br)c2)c2ccccc21 (stereo not given),–,inactive: 8.36%
CCOc1ccc(C(=O)Nc2ccc3nc4c(c(Nc5ccccc5OC)c3c2)CCCC4)cc1,"inconclusive: 26.1 µM [inhibitor, single point]",–
COc1ccc(S(=O)(=O)N(Cc2nc(-c3cccc(C)c3)no2)C2CCCCC2)cc1,–,inactive: 7.2%
COc1ccc(OCC(O)Cn2c(=N)n(CCN3CCCCC3)c3ccccc32)cc1 (stereo not given),–,inactive: -15.9%
Oc1ccc(NCc2ccccc2OCc2ccc(Cl)cc2)cc1,–,inactive: 4.43%
CCN(CC)CCCNc1sc(S(=O)(=O)c2ccccc2)nc1S(=O)(=O)c1ccc(Cl)cc1,active: 16.5 µM,–
CCOc1ccccc1NC(=O)N(Cc1ccc(F)cc1)C1CCN(CC)CC1,"inconclusive: 0.0826 µM [inhibitor, full curve]",–
Cc1ccc(S(=O)(=O)c2nc(-c3ccco3)oc2SC(C)c2ccccc2)cc1 (stereo not given),–,inactive: 2.14%
CC1=Nc2cc(C(=O)NCCc3ccc(Cl)cc3)ccc2Sc2ccc(C)cc21,"inconclusive: 2.61 µM [inhibitor, full curve]",–
CCC1=Nc2cc(C(=O)NC3CCCC3)ccc2Sc2ccc(Cl)cc21,active: 2.07 µM,–
CC1=C(C(=O)Nc2ccc(C)cc2C)C(c2ccc(C(C)C)cc2)n2nc(C(F)(F)F)nc2N1 (stereo not given),"inconclusive: 16.5 µM [inhibitor, single point]",–
CCC1CCc2nc3sc(C(=O)Nc4cccc(F)c4)c(N)c3cc2C1 (stereo not given),"inconclusive: 0.329 µM [inhibitor, full curve, poor fit]",–
CCOC(=O)c1c(C)[nH]c(CCC(=O)NCCCN2CCN(c3cc(C)ccc3C)CC2)c1C,"inconclusive: 23.3 µM [inhibitor, single point]",–
CCS(=O)(=O)c1ncc(Cl)c(C(=O)N2CCN(c3ccc(OC)cc3)CC2)n1,active: 10.4 µM,–
O=C(CCCn1c(=O)c2ccccc2n(Cc2cccc(Cl)c2)c1=O)NCCc1ccc(Cl)cc1,–,inactive: 37.4%

# Given as tab-separated lines: part of the list above.
Compound	Potency	activity change, negative = inhibition
Cc1ccccc1CN1C(=O)C(O)(CC(=O)c2cccc(Br)c2)c2ccccc21 (stereo not given)	–	inactive: 8.36%
CCOc1ccc(C(=O)Nc2ccc3nc4c(c(Nc5ccccc5OC)c3c2)CCCC4)cc1	inconclusive: 26.1 µM [inhibitor, single point]	–

# Continued.

Compound,Potency,"activity change, negative = inhibition"
COc1ccc(CNC(=O)c2cc(-c3ccc(OC)c(OC)c3)nc3n[nH]c(-c4ccc(C)cc4)c23)cc1,"inconclusive: 14.7 µM [inhibitor, single point]",–
CCOC(=O)c1c(NC(=O)COc2ccc(OC)cc2)sc(C(=O)N(CC)CC)c1C,–,inactive: 8.8%
CCSc1ccccc1C(=O)Nc1ccc(-c2nc3ccccc3s2)c(O)c1,"inconclusive: 14.7 µM [inhibitor, partial curve, poor fit]",–
O=C(NC1CCN(Cc2ccccc2)CC1)c1ccc(Cn2c(=O)c3ccccc3n(Cc3ccc(F)cc3)c2=O)cc1,"inconclusive: 7.36 µM [inhibitor, partial curve]",–
C=C(C)CSc1nc(-c2ccccc2)cc(-c2ccc(OC)cc2)c1C#N,–,inactive: -15%
Cc1cccc(NC(=O)c2sc3nc4c(cc3c2N)CCCCCC4)c1C,"inconclusive: 1.47 µM [inhibitor, full curve]",–
CCN(CC)CCNC(=O)c1cc(-c2ccc(Br)s2)nc2ccccc12,"inconclusive: 11.7 µM [inhibitor, partial curve, poor fit]",–
COc1ccc(CCN2C(=O)c3[nH]nc(-c4ccccc4O)c3C2c2cccc(OC)c2)cc1 (stereo not given),"inconclusive: 7.36 µM [inhibitor, partial curve, poor fit]",–
CCOC(=O)c1ccc(-c2ccc(/C=C(\C#N)c3nc4ccc(C)cc4[nH]3)o2)cc1,"inconclusive: 2.61 µM [inhibitor, full curve]",–
COc1cc(O)ccc1-c1nc2ccc(Br)cn2c1Nc1ccccc1C,"inconclusive: 26.1 µM [inhibitor, single point]",–
O=C(NCc1ccccc1Cl)C(=O)NCC(c1cccs1)S(=O)(=O)c1cccs1 (stereo not given),–,inactive: -22.4%
COc1ccc(/C=C/C(=O)Nc2ccc3nc(N4CCC(C)CC4)cc(C)c3c2)cc1OC,–,inactive: -13.4%
Cc1ccc(-c2nc3sccn3c2Nc2ccc(C)c(C)c2)cc1,–,inactive: -18.1%
Cc1ccc(C(=O)/C=C/c2cn(CC(O)CN3CCCCCC3)c3ccccc23)cc1 (stereo not given),"inconclusive: 9.27 µM [inhibitor, partial curve]",–
Cc1ccc(NC(=O)NCC2CCN(Cc3cccc(Cl)c3)CC2)cc1Cl,"inconclusive: 26.1 µM [inhibitor, single point]",–
CCOC(=O)c1[nH]c2ccccc2c1NC(=O)c1ccccc1OCC,"inconclusive: 0.521 µM [inhibitor, full curve]",–
Cc1cc(NCc2ccc(Cl)cc2)n2cnnc2n1,–,inactive: -27.1%
CCN1CCOC(=O)C1CC(=O)Nc1cc(C)ccc1OC (stereo not given),active: 16.5 µM,–
CCOc1c(Br)cc(C2CC(=O)Nc3cc4c(cc32)OCO4)cc1OC (stereo not given),"inconclusive: 5.21 µM [inhibitor, partial curve, poor fit]",–
Oc1ccc(NCc2ccccc2OCc2ccccc2F)cc1,"inconclusive: 7.36 µM [inhibitor, partial curve]",–
